Measured values: patent US20190218308A1
Results are given in words; binding and its absence hold for the method and conditions named. Some results given as binding are weak or reduced against the parent protein; the word gives no strength.

Tests used:
CD39 mutant 6 (human) = target: T1, CD39 mutant 6 (human) (UniProt P49961); assay: flow cytometry, Hek-293T cells expressing mutant 6
T1 sequence: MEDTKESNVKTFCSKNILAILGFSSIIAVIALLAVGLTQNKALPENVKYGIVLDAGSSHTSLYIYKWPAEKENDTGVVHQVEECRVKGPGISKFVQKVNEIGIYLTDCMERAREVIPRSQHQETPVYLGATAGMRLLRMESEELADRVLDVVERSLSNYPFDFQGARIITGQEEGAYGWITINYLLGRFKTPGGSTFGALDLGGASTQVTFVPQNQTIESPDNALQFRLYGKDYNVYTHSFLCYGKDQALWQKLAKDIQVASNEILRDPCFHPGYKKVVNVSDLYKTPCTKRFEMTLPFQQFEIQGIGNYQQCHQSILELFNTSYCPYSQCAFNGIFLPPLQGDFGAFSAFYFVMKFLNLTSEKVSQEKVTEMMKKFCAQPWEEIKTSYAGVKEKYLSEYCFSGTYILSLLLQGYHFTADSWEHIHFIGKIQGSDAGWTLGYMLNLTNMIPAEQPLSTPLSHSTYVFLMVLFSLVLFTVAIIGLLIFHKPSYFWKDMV

CD39 mutant 2A (human) = target: T2, CD39 mutant 2A (human) (UniProt P49961); assay: flow cytometry, Hek-293T cells expressing mutant 2A
T2 sequence: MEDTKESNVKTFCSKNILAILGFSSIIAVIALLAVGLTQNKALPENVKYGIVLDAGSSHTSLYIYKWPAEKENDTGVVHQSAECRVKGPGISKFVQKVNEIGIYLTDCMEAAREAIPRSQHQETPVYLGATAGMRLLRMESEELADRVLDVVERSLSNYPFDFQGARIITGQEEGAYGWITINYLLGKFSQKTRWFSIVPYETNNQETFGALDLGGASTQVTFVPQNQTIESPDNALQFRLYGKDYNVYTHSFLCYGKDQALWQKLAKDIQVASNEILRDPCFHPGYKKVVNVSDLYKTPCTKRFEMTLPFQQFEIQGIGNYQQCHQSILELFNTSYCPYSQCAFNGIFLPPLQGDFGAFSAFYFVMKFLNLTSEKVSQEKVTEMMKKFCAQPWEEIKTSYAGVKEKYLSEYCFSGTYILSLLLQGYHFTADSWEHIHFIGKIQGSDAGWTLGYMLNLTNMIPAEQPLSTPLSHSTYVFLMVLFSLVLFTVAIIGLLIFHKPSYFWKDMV

CD39 mutant 13 (human) = target: T3, CD39 mutant 13 (human) (UniProt P49961); assay: flow cytometry, Hek-293T cells expressing mutant 13
T3 sequence: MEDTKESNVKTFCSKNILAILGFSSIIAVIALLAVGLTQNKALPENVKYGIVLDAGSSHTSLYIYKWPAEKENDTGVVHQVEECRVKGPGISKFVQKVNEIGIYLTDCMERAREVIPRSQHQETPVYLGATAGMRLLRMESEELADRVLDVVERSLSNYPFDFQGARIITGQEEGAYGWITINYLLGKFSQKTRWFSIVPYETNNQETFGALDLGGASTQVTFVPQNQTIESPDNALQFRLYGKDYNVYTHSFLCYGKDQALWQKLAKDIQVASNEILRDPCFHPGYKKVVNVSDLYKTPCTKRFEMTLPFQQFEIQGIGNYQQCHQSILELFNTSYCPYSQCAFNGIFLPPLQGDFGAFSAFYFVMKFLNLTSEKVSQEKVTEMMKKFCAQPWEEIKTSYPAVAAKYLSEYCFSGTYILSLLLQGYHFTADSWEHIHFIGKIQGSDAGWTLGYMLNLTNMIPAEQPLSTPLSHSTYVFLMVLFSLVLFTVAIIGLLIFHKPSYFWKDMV

CD39 mutant 16 (human) = target: T4, CD39 mutant 16 (human) (UniProt P49961); assay: flow cytometry, Hek-293T cells expressing mutant 16
T4 sequence: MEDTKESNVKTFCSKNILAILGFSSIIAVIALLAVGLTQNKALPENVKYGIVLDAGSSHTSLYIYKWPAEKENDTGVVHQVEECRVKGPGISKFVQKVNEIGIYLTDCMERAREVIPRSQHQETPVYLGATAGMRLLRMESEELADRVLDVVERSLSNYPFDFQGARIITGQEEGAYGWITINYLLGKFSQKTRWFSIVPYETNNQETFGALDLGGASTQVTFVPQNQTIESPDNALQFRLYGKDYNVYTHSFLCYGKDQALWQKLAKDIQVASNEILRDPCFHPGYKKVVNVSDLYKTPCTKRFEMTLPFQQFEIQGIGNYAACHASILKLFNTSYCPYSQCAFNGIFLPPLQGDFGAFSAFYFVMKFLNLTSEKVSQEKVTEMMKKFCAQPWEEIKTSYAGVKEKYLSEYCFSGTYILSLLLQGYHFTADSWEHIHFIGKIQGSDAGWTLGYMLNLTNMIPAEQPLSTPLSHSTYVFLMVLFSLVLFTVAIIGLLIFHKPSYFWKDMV

CD39 mutant 9 (human) = target: T5, CD39 mutant 9 (human) (UniProt P49961); assay: flow cytometry, Hek-293T cells expressing mutant 9
T5 sequence: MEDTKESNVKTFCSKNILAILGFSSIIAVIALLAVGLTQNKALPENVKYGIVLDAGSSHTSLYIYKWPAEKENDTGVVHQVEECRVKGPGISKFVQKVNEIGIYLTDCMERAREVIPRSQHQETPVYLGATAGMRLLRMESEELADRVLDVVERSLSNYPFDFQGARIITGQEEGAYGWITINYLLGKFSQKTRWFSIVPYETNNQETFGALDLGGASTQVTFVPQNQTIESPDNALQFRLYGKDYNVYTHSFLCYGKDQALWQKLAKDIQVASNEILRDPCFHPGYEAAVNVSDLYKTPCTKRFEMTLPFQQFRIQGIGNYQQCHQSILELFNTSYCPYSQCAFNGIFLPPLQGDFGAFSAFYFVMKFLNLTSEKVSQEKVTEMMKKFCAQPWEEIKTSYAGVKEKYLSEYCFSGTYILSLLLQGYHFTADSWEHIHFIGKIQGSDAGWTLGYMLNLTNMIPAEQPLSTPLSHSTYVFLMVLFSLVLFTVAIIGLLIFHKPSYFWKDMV

Measured: binding

B1: antibody I-399 (antibody, V domains shown)
VH: PVQLQQPGAEVVMPGASVKLSCKASGYTFTSFWMNWMRQRPGQGLEWIGEIDPSDFYTNSNQRFKGKATLTVDKSSSTAYMQLSSLTSEDSAVYFCARGDFGWYFDVWGTGTSVTVSS
VL: EIVLTQSPTTMTSSPGEKITFTCSASSSINSNYLHWYQQKPGFSPKLLIYRTSNLASGVPTRFSGSGSGTSYSLTIGTMEAEDVATYYCQQGSSLPRTFGGGTKLEIK
binds: all assays above
